Assay results published in PMC3466224.
Where a chain is given by its changes, count along the chain named. No constants are given. Whether binding was seen depends on the method and setting. In cells and extracts the contact can be indirect. Some binding calls cover weakened binding; strength is not graded here. For some assays here: Sequences can lack the tags named with a protein. Each block holds one binder with its values, some of them ahead of it.

Tests used:
[1] = molecular target: T1, carbohydrate response element binding protein (Chrebp) (mouse (endogenous in primary hepatocytes and liver)) (UniProt Q99MZ3); assay: co-IP; mouse primary hepatocytes transfected with HA-OGT, cultured with 5 mM or 25 mM glucose for 24 hr; lysed in RIPA buffer, diluted with Co-IP buffer (50 mM Tris, 150 mM NaCl, 0.1% NP-40, 10% glycerol, 5 mM MgCl2); immunoprecipitation with anti-Chrebp antibody, blot with anti-HA
T1 sequence: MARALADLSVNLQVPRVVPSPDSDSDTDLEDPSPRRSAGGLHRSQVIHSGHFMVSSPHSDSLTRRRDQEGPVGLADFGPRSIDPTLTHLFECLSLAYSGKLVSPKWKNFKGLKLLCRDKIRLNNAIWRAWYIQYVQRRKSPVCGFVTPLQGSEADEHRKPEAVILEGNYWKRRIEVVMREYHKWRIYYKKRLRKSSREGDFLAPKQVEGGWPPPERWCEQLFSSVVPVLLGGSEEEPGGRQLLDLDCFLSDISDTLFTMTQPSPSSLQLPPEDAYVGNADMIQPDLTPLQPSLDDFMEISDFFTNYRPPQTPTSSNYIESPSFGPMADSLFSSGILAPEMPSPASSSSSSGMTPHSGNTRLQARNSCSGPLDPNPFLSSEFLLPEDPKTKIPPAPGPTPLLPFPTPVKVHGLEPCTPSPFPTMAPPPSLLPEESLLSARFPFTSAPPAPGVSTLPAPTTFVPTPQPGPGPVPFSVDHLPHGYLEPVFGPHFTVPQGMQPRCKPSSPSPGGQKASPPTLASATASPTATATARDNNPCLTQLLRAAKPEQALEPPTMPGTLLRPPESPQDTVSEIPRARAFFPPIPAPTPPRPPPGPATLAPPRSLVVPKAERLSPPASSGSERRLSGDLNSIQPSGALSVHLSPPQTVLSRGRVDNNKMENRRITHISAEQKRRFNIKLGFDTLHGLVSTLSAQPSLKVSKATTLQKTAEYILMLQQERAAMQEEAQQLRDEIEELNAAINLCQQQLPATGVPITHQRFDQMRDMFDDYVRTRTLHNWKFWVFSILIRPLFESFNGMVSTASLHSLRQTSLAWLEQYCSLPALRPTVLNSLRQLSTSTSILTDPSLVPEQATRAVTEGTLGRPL

[2] = molecular target: T1, carbohydrate response element binding protein (Chrebp) (mouse (endogenous in primary hepatocytes and liver)); assay: co-IP; liver samples of L-FoxO1-KO and control mice, 24 hr fasted or 3 hr refed after 24 hr starvation; immunoprecipitation with anti-Chrebp antibody, blot with anti-OGT

- binding [1]: binds
B1: HA-OGT (O-GlcNAc transferase) (enzyme, UniProt O15294 1-1046)
chain: MASSVGNVADSTEPTKRMLSFQGLAELAHREYQAGDFEAAERHCMQLWRQEPDNTGVLLLLSSIHFQCRRLDRSAHFSTLAIKQNPLLAEAYSNLGNVYKERGQLQEAIEHYRHALRLKPDFIDGYINLAAALVAAGDMEGAVQAYVSALQYNPDLYCVRSDLGNLLKALGRLEEAKACYLKAIETQPNFAVAWSNLGCVFNAQGEIWLAIHHFEKAVTLDPNFLDAYINLGNVLKEARIFDRAVAAYLRALSLSPNHAVVHGNLACVYYEQGLIDLAIDTYRRAIELQPHFPDAYCNLANALKEKGSVAEAEDCYNTALRLCPTHADSLNNLANIKREQGNIEEAVRLYRKALEVFPEFAAAHSNLASVLQQQGKLQEALMHYKEAIRISPTFADAYSNMGNTLKEMQDVQGALQCYTRAIQINPAFADAHSNLASIHKDSGNIPEAIASYRTALKLKPDFPDAYCNLAHCLQIVCDWTDYDERMKKLVSIVADQLEKNRLPSVHPHHSMLYPLSHGFRKAIAERHGNLCLDKINVLHKPPYEHPKDLKLSDGRLRVGYVSSDFGNHPTSHLMQSIPGMHNPDKFEVFCYALSPDDGTNFRVKVMAEANHFIDLSQIPCNGKAADRIHQDGIHILVNMNGYTKGARNELFALRPAPIQAMWLGYPGTSGALFMDYIITDQETSPAEVAEQYSEKLAYMPHTFFIGDHANMFPHLKKKAVIDFKSNGHIYDNRIVLNGIDLKAFLDSLPDVKIVKMKCPDGGDNADSSNTALNMPVIPMNTIAEAVIEMINRGQIQITINGFSISNGLATTQINNKAATGEEVPRTIIVTTRSQYGLPEDAIVYCNFNQLYKIDPSTLQMWANILKRVPNSVLWLLRFPAVGEPNIQQYAQNMGLPQNRIIFSPVAPKEEHVRRGQLADVCLDTPLCNGHTTGMDVLWAGTPMVTMPGETLASRVAASQLTCLGCLELIAKNRQEYEDIAVKLGTDLEYLKKVRGKVWKQRISSPLFNTKQYTMELERLYLQMWEHYAAGNKPDHMIKPVEVTESA

- binding [2]: binds
B2: O-GlcNAc transferase (OGT), endogenous (enzyme, UniProt Q8CGY8 1-1046)
chain: B1 chain with D495E, A765P, N972S, V993I
